Test results taken from article PMC8096138.
These are yes or no findings as the source states them, for the method shown. In cells and extracts the contact can be indirect. Here binding means that the protein was enriched with, or labelled near, the bait; the list need not be complete.

Molecular target: SARS-CoV-2 ORF3a, expressed in human cells (SARS-CoV-2), P0DTC3
Experiment: affinity purification with mass spectrometry
Settings: remark: other sources report otherwise

B1: VPS39, endogenous in HeLa cells, Q96JC1 1-886 (protein)
chain: MHDAFEPVPILEKLPLQIDCLAAWEEWLLVGTKQGHLLLYRIRKDVVPADVASPESGSCNRFEVTLEKSNKNFSKKIQQIHVVSQFKILVSLLENNIYVHDLLTFQQITTVSKAKGASLFTCDLQHTETGEEVLRMCVAVKKKLQLYFWKDREFHELQGDFSVPDVPKSMAWCENSICVGFKRDYYLIRVDGKGSIKELFPTGKQLEPLVAPLADGKVAVGQDDLTVVLNEEGICTQKCALNWTDIPVAMEHQPPYIIAVLPRYVEIRTFEPRLLVQSIELQRPRFITSGGSNIIYVASNHFVWRLIPVPMATQIQQLLQDKQFELALQLAEMKDDSDSEKQQQIHHIKNLYAFNLFCQKRFDESMQVFAKLGTDPTHVMGLYPDLLPTDYRKQLQYPNPLPVLSGAELEKAHLALIDYLTQKRSQLVKKLNDSDHQSSTSPLMEGTPTIKSKKKLLQIIDTTLLKCYLHTNVALVAPLLRLENNHCHIEESEHVLKKAHKYSELIILYEKKGLHEKALQVLVDQSKKANSPLKGHERTVQYLQHLGTENLHLIFSYSVWVLRDFPEDGLKIFTEDLPEVESLPRDRVLGFLIENFKGLAIPYLEHIIHVWEETGSRFHNCLIQLYCEKVQGLMKEYLLSFPAGKTPVPAGEEEGELGEYRQKLLMFLEISSYYDPGRLICDFPFDGLLEERALLLGRMGKHEQALFIYVHILKDTRMAEEYCHKHYDRNKDGNKDVYLSLLRMYLSPPSIHCLGPIKLELLEPKANLQAALQVLELHHSKLDTTKALNLLPANTQINDIRIFLEKVLEENAQKKRFNQVLKNLLHAEFLRVQEERILHQQVKCIITEEKVCMVCKKKIGNSAFARYPNGVVVHYFCSKEVNPADT
- binding: binds
